Data taken from patent US12384767B2, “Probe for detection of cathepsin activity” (University of Florida Research Foundation, Incorporated, priority 2020, dated 2025).
Values joined by “and” are separate entries in the source; they are usually repeats but may differ in a detail not shown here. Equal values may be shown once. Residues, ends and D or L forms follow the SMILES beside them. *: point of attachment. AMC = Cc1cc(=O)oc2cc(N*)ccc12; Cbz = O=C(OCc1ccccc1)*

Test system: CTB, CTV, and CTS
Test: Time-course cathepsin assay, total competing signal (sum of CTB, CTV, and CTS) normalized to CTL
Type: biochemical, human
Excerpt: CTV and CTB appear to remain within the initial velocity region of the curves during this time, with a markedly lower slope than that observed for CTL initially.
The kinetic assays were repeated at pH 5.0 (FIG. 3C, D), and overall the same trends were observed as at pH 6.5. One notable difference is the altered reaction slope of CTL at this pH, which appears to have less of a plateau and instead seems to shift to a second phase of constant, yet slower, velocity. […] This improved activity of CTB at low pH is consistent with previous observations that CTB's unique carboxypeptidase activity is dependent on an acidic environment, and that this activity is disengaged at neutral pH^13.
To estimate relative selectivity of the compounds for CTL over the other enzymes, the intensity at each time point for CTB, CTV, or CTS, was divided by the intensity of CTL at the same time point; this normalizes CTL-generated signal intensity to 1.0, and expresses the relative signal generated by the other enzymes (FIG. 5). These graphs indicate that off-target signal is least prominent within the first 10 min of incubation, as the faster kinetics of the probes to CTL generate more contrast at these earlier time points. To quantify the selectivity of CTLAP and sc-3136, the lowest interfering signal from each enzyme was identified and tabulated in Table 1. Also identified was the assay time at which the total competing signal (sum of CTB, CTV, and CTS) was lowest, and the relative intensity of all competing enzymes at that time point. […] The optimum results are achieved within 10 min incubation time, lending strength to the application of CTLAP for rapid detection of CTL, even in the presence of competing enzymes.
Table 1. Signal generated by CTB, CTV, and CTS, or all three enzymes together, relative to CTL signal at that time point. The lowest competing signal over the time course in FIG. 5 was selected for each individual enzyme, as well as for the sum of signals from all three enzymes. The time point at which the sum of all competing signals is lowest is also listed.
• 1. Recombinant human Cathepsin L/MEP protein (Active) • a. Product ab174030; Lot No. (Conc.) GR3210572-1 (N/A) Sino Biological • 1. Human Cathepsin B/CTSB Protein (His Tag) • a. Cat. No. 10483-H08H • 2. Human Cathepsin V/Cathepsin L2/Preproprotein Protein (His Tag) • a. Cat. No. 10093-H08H • 3. Human Cathepsin S/CTSS Protein (His Tag) • a. Cat. No. 10487-H08H Santa Cruz Biotechnology, Inc. • 1. […]
Cathepsins reconstituted as usual and diluted into cathepsin reaction buffers (pH 5.0 or 6.5) in an opaque-bottom 96-well plate. Probes added quickly to each active well, then emission measured immediately on BioTek Synergy H1 plate reader, collecting consecutive 36 sec runs over the first 15 min of reaction time. […]

SMILES | time point at which the sum of all competing signals is lowest (pH 5.0) | time point at which the sum of all competing signals is lowest (pH 6.5)
Cc1cc(=O)oc2cc(NC(=O)C(CCCN=C(N)N)NC(=O)C(Cc3ccccc3)NC(=O)OCc3ccccc3)ccc12 (stereo not drawn) [sc-3136, Z-FR-AMC, reference compound] (Cbz-Phe-Arg-{AMC}; configuration not given here) | 7.6 min | 11.4 min
Cc1cc(=O)oc2cc(NC(=O)C(CCCCN)NC(=O)C(Cc3ccc(-c4cccs4)cc3)NC(=O)OCc3ccccc3)ccc12 (stereo not shown) [CTLAP] | 3.4 to 4.0 min | 10.2 to 10.4 min and 10.2 to 11.4 min
